# Measured data: PubChem BioAssay AID1224830 (NIAID, 2016)
# Screen: 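Genes whose knock-down alters the TNF-alpha reporter response to LPS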 (primary screen)
# System: human THP-1 monocytic leukaemia cells, TNF dual-luciferase reporter clone, PMA-differentiated to macrophage-like cells
# Reagent: siRNA pool against human genes, 50 nM
# Duration: LPS for 4 h, given about 3 days after siRNA transfection
# Challenge: bacterial LPS (TLR4 ligand), 10 ng/ml
# Measured: 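Ratio of firefly to renilla light, scaled to the plate median and expressed as a robust z-score per replicate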
# Reading the numbers: TNF reporter robust z-score: higher = stronger TNF reporter response to LPS
# Active means: 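a well is active when its z-score exceeds 2.8 or falls below -1.5; control wells carry no call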
# The whole screen tested about 18,000 reagents; this is a random part of them. In the full data, about 2,900 (16%) are marked active. 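Calls are made per well; low scores hint the gene aids the LPS response, high scores that it dampens it.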 Repeated entries: four replicate wells of each siRNA pool.
Gene,TNF reporter robust z-score,activity call
PYGO1,-0.07,inactive
PYGO1,-0.24,inactive
PYGO1,-0.34,inactive
XAGE1B,-0.2,inactive
XAGE1B,0.68,inactive
XAGE1B,-0.46,inactive
XAGE1B,1.48,inactive
RRP36,-0.08,inactive
RRP36,2.13,inactive
RRP36,0.64,inactive
RRP36,1.37,inactive
MAN2A2,-0.13,inactive
MAN2A2,-0.1,inactive
MAN2A2,0.31,inactive
MAN2A2,0.06,inactive
TTLL2,-1.29,inactive
TTLL2,-1.23,inactive
TTLL2,-0.72,inactive
TTLL2,-0.65,inactive
ZNF620,-0.59,inactive
ZNF620,0.03,inactive
ZNF620,-0.8,inactive
ZNF620,-0.23,inactive
HBG1,-0.54,inactive
HBG1,-1.02,inactive
HBG1,-0.85,inactive
HBG1,-0.03,inactive
NOAZFP,-1.28,inactive
NOAZFP,-0.37,inactive
NOAZFP,-1.3,inactive
NOAZFP,-0.6,inactive
SIGLEC9,-0.83,inactive
SIGLEC9,-0.6,inactive
SIGLEC9,-0.92,inactive
SIGLEC9,-0.79,inactive
VPREB1,-0.41,inactive
VPREB1,0.43,inactive
VPREB1,0.23,inactive
VPREB1,-0.69,inactive
NFIA,-1.04,inactive
NFIA,0.13,inactive
NFIA,0.48,inactive
NFIA,0.92,inactive
SUV39H2,-1.75,active
SUV39H2,-1.37,inactive
SUV39H2,-1.62,active
SUV39H2,-1.32,inactive
